# Drug screen on melanoma cell lines: apoptosis marker

From a melanoma drug combination screen (doi:10.1371/journal.pone.0140310); values rounded.

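Human melanoma cells were exposed to a pair of drugs for 72 h in 1,536-well plates and read by automated microscopy after fixing and staining. Values are the share of nuclei positive for cleaved PARP as a percentage of the same share in the DMSO control: 100 is the control level, higher means more apoptosis. Every drug was used at one fixed concentration, the higher of two screened. The file gives one value for each pair and line, without errors, so small differences may be noise. The marker varies much from line to line, for technical or biological reasons.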
This is part of the screen, not chosen by result.
An entry leaves out what has no value listed here.

First drug in all entries: docetaxel, 0.0005 µM, CC(=O)O[C@@]12CO[C@@H]1C[C@H](O)[C@@]1(C)C(=O)[C@H](O)C3=C(C)[C@@H](OC(=O)[C@H](O)[C@@H](NC(=O)OC(C)(C)C)c4ccccc4)C[C@@](O)([C@@H](OC(=O)c4ccccc4)[C@H]21)C3(C)C

{"second drug": "COc1cc([C@@H]2c3cc4c(cc3[C@@H](O[C@@H]3O[C@@H]5CO[C@@H](C)O[C@H]5[C@H](O)[C@H]3O)[C@H]3COC(=O)[C@H]23)OCO4)cc(OC)c1O at 0.1 µM", "WM3619": 146, "WM115": 838}
{"second drug": "CC(=O)c1c(C)c2cnc(Nc3ccc(N4CCNCC4)cn3)nc2n(C2CCCC2)c1=O at 0.2 µM", "WM3619": 187, "WM115": 730}
{"second drug": "COc1cc2c(Oc3ccc4[nH]c(C)cc4c3F)ncnc2cc1OCCCN1CCCC1 at 2 µM", "WM3619": 386, "WM115": 812}
{"second drug": "COCC[n+]1c2c(n(Cc3cnccn3)c1C)C(=O)c1ccccc1C2=O at 0.002 µM", "WM3619": 221, "WM115": 1440}
{"second drug": "Nc1cccc2c1CN(C1CCC(=O)NC1=O)C2=O (configuration not stated) at 5 µM", "WM3619": 217, "WM115": 1480}
{"second drug": "Oc1nc(-c2ccc(C(F)(F)F)cc2)nc2c1CSCC2 at 10 µM", "WM3619": 136, "WM115": 126}
{"second drug": "CCN(CC)CCNC(=O)c1c(C)[nH]c(/C=C2\\C(=O)Nc3ccc(F)cc32)c1C at 2 µM", "WM3619": 156, "WM115": 723}
{"second drug": "Nc1ccn([C@@H]2O[C@H](CO)[C@@H](O)C2(F)F)c(=O)n1 at 0.002 µM", "WM3619": 300, "WM115": 1170}
{"second drug": "Cc1nc(Nc2ncc(C(=O)Nc3c(C)cccc3Cl)s2)cc(N2CCN(CCO)CC2)n1 at 0.02 µM", "WM3619": 239, "WM115": 154}
{"second drug": "C[C@]1(O)C[C@@H](c2nc(-c3ccc4ccc(-c5ccccc5)nc4c3)c3c(N)nccn32)C1 at 2 µM", "WM3619": 143, "WM115": 1560}
{"second drug": "Cc1ccc(Nc2nccc(N(C)c3ccc4c(C)n(C)nc4c3)n2)cc1S(N)(=O)=O at 2 µM", "WM3619": 140, "WM115": 1500}
{"second drug": "CN(C)S(=O)(=O)c1ccc2c(c1)/C(=C/c1cc3c([nH]1)CCCC3)C(=O)N2 at 2 µM", "WM3619": 134, "WM115": 447}
{"second drug": "CC(C)C[C@H](NC(=O)[C@H](Cc1ccccc1)NC(=O)c1cnccn1)B(O)O at 0.005 µM", "WM3619": 10200, "WM115": 3230}
{"second drug": "O=C(Oc1ccc([N+](=O)[O-])cc1)N1CCC(C(O)(c2ccc3c(c2)OCO3)c2ccc3c(c2)OCO3)CC1 at 5 µM", "WM3619": 162, "WM115": 265}
{"second drug": "COc1cc(Nc2ncc(F)c(Nc3ccc4c(n3)NC(=O)C(C)(C)O4)n2)cc(OC)c1OC at 2 µM", "WM3619": 168, "WM115": 2010}
{"second drug": "NC(=O)Nc1cc(-c2cccc(F)c2)sc1C(=O)N[C@H]1CCCNC1 at 0.1 µM", "WM3619": 518, "WM115": 223}
{"second drug": "O=C(O)[C@@H]1[O][Sb](=[O])([O][Sb]2(=[O])[O][C@H]([C@H](O)CO)[C@H](O)[C@H](C(=O)O)[O]2)[O][C@H]([C@H](O)CO)[C@@H]1O (some centres not stated) at 10 µM", "WM3619": 230, "WM115": 2190}
{"second drug": "CCCCCCCCCCCCCCCCCCOP(=O)([O-])OC1CC[N+](C)(C)CC1 at 2 µM", "WM3619": 142, "WM115": 1230}
{"second drug": "NC1(c2ccc(-c3nc4ccn5c(=O)[nH]nc5c4cc3-c3ccccc3)cc2)CCC1 at 2 µM", "WM3619": 440, "WM115": 1750}
{"second drug": "COc1ccc(-c2ccc3c(N4CCOCC4)nc(N4C[C@@H](C)O[C@@H](C)C4)nc3n2)cc1CO at 0.1 µM", "WM3619": 286, "WM115": 222}
{"second drug": "O=C(/C=C/c1cccnc1)NCCCCC1CCN(C(=O)c2ccccc2)CC1 at 0.05 µM", "WM3619": 233, "WM115": 1810}
{"second drug": "Cc1cc(N2CCOCC2)cc2[nH]c(-c3c(NC[C@@H](O)c4cccc(Cl)c4)cc[nH]c3=O)nc12 at 1 µM", "WM3619": 168, "WM115": 430}
{"second drug": "O=C1NC(=O)/C(=C/c2ccc(-c3ccc(F)cc3O)o2)S1 at 5 µM", "WM3619": 240, "WM115": 258}
{"second drug": "O=C(O)c1ccc2c(c1)nc(Nc1cccc(Cl)c1)c1ccncc12 at 2 µM", "WM3619": 222, "WM115": 1860}
{"second drug": "Cc1cc(Nc2cc(N3CCN(C)CC3)nc(Sc3ccc(NC(=O)C4CC4)cc3)n2)n[nH]1 at 0.03 µM", "WM3619": 107, "WM115": 567}
{"second drug": "Cn1cnc2c(F)c(Nc3ccc(Br)cc3Cl)c(C(=O)NOCCO)cc21 at 0.075 µM", "WM3619": 290, "WM115": 1170}
{"second drug": "CN(NC(=O)CC(=O)NN(C)C(=S)c1ccccc1)C(=S)c1ccccc1 at 0.03 µM", "WM3619": 1430, "WM115": 4000}
{"second drug": "CCCCCCCCc1ccc(CCC(N)(CO)CO)cc1 at 10 µM", "WM115": 5480}
{"second drug": "Cc1cn(-c2cc(NC(=O)c3ccc(C)c(Nc4nccc(-c5cccnc5)n4)c3)cc(C(F)(F)F)c2)cn1 at 1 µM", "WM3619": 416, "WM115": 4190}
{"second drug": "CC[C@]1(O)C[C@H]2CN(CCc3c([nH]c4ccccc34)[C@@](C(=O)OC)(c3cc4c(cc3OC)N(C=O)[C@H]3[C@@](O)(C(=O)OC)[C@H](OC(C)=O)[C@]5(CC)C=CCN6CC[C@]43[C@@H]65)C2)C1 at 0.0005 µM", "WM3619": 251, "WM115": 1110}

Once more, the final 2:

Second drug,WM3619,WM115
Cc1cn(-c2cc(NC(=O)c3ccc(C)c(Nc4nccc(-c5cccnc5)n4)c3)cc(C(F)(F)F)c2)cn1 at 1 µM,416,4190
CC[C@]1(O)C[C@H]2CN(CCc3c([nH]c4ccccc34)[C@@](C(=O)OC)(c3cc4c(cc3OC)N(C=O)[C@H]3[C@@](O)(C(=O)OC)[C@H](OC(C)=O)[C@]5(CC)C=CCN6CC[C@]43[C@@H]65)C2)C1 at 0.0005 µM,251,1110